Experimental data as given in publication PMC9166766.
These are yes or no findings as the source states them, for the method shown. A result given as binding can be weak or reduced; the word gives no strength. Sequences can lack the tags named with a protein. For some of these results: In cells and extracts the contact can be indirect.

Key:
His-tagged CNAβ2 = assay: pull-down; in vitro His-pulldown: purified His-tagged CNAβ2 mixed with purified GST-tagged peptides in 0.5 ml IP150 buffer with 0.5 mM EDTA, captured on Ni-NTA agarose, western blot; both purified
Flag-tagged CNAβ2 [1] = assay: co-IP; immunoprecipitation with GAL4 DBD-tagged CABIN1 peptides and Flag-tagged CNA (Supplementary Fig. 1d, e); cells lysed in IP150 buffer, Anti-FLAG M2 Affinity Gel
Flag-tagged CNAβ2 [2] = assay: co-IP; transfected HEK293T cells lysed in IP150 buffer; Flag- and HA-tagged proteins precipitated with Anti-FLAG M2 Affinity Gel or Anti-HA Agarose; western blot

B1: GST-tagged CABIN1-L-1-2, purified (peptide)
chain: PEITVTPPTP
In the case of B1, the binding (His-tagged CNAβ2) is reported as “binds”.

B2: GAL4 DBD-tagged CABIN1-L-1-2 (peptide)
chain: PEITVTPPTP
B2 was tested, and the binding (Flag-tagged CNAβ2 [1]) was “binds”.

B3: GAL4 DBD-tagged CABIN1-L-1 (peptide)
chain: FPPEITVTPPTP
For B3, the binding (Flag-tagged CNAβ2 [1]) was “binds”.

B4: GAL4 DBD-tagged CABIN1-L-1-3 (peptide)
chain: EITVTPPTP
In the case of B4, the binding (Flag-tagged CNAβ2 [1]) is reported as “no binding”.

B5: GAL4 DBD-tagged CABIN1-L-1-1 (peptide)
chain: PPEITVTPPTP
B5 was tested, and the binding (Flag-tagged CNAβ2 [1]) was “binds”.

B6: GST-tagged CABIN1-L-1-2 expressed in HEK293T cells (peptide)
chain: PEITVTPPTP
B6 was tested, and the binding (Flag-tagged CNAβ2 [2]) was “binds”.

B7: GAL4 DBD-tagged CABIN1-L-2 (peptide)
chain: FPPEITVTPPT
For B7, the binding (Flag-tagged CNAβ2 [1]) was “no binding”.
